# Experimental data published in patent EP0511903B1, “Conjugate of calcitonin and polyethylene glycol” (TEVA PHARMACEUTICAL INDUSTRIES LTD., priority 1991, dated 1998).
# Part of at least one peptide drawing is inferred or uncertain, most often the ends.
# Experiments:
# [1] = tested on: récepteurs membranaires isolés à partir de reins de rats; experiment: Recognition by membrane receptors isolated from rat kidneys (inhibition curve); assay type: binding; details: relative to unmodified CTS; extrapolated from the inhibition curve
# [2] = Hypocalcaemic activity in rats (European Pharmacopoeia protocol); assay type: in vivo, rats (OFA); details: i.v., 40 mUI (3 pM/rat), 1 hour after injection, not significant if <10 %
structure (smiles),measurement,setting,value
"CC(C)C[C@H](NC(=O)[C@H](CCCCN)NC(=O)CNC(=O)[C@H](CC(C)C)NC(=O)[C@@H](NC(=O)[C@@H]1CSSC[C@H](N)C(=O)N[C@@H](CO)C(=O)N[C@@H](CC(N)=O)C(=O)N[C@@H](CC(C)C)C(=O)N[C@@H](CO)C(=O)N[C@@H]([C@@H](C)O)C(=O)N1)C(C)C)C(=O)N[C@@H](CO)C(=O)N[C@@H](CCC(N)=O)C(=O)N[C@@H](CCC(=O)O)C(=O)N[C@@H](CC(C)C)C(=O)N[C@@H](Cc1c[nH]cn1)C(=O)N[C@@H](CCCCN)C(=O)N[C@@H](CC(C)C)C(=O)N[C@@H](CCC(N)=O)C(=O)N[C@H](C(=O)N[C@@H](Cc1ccc(O)cc1)C(=O)N1CCC[C@H]1C(=O)N[C@@H](CCCNC(=N)N)C(=O)N[C@H](C(=O)N[C@@H](CC(N)=O)C(=O)N[C@H](C(=O)NCC(=O)N[C@@H](CO)C(=O)NCC(=O)N[C@H](C(=O)N1CCC[C@H]1C(N)=O)[C@@H](C)O)[C@@H](C)O)[C@@H](C)O)[C@@H](C)O [CTS, calcitonine de saumon]",% de reconnaissance par récepteurs membranaires,[1],100%
same,% de chute de la calcémie 1 heure après l'injection,[2],28%
